For at least one entry, the source does not settle the construct or the ends of the probe. For some of these results: Negatives hold for the conditions tested. For some of these results: At least one verdict rests on a figure or table, not on a statement of the authors. For some of these results: Weaker means in comparison with the reference protein, sequence or condition of that experiment. For some of these results: Where cells or extracts were used, other partners may take part. For some of these results: Protein sequences can lack the tags named with them.

The chains behind the UniProt entries cited, without tags or fusion partners. Where a name states a change or a piece, a line headed by the entry shows the natural chain unless it says otherwise.
UniProt Q9NFU0: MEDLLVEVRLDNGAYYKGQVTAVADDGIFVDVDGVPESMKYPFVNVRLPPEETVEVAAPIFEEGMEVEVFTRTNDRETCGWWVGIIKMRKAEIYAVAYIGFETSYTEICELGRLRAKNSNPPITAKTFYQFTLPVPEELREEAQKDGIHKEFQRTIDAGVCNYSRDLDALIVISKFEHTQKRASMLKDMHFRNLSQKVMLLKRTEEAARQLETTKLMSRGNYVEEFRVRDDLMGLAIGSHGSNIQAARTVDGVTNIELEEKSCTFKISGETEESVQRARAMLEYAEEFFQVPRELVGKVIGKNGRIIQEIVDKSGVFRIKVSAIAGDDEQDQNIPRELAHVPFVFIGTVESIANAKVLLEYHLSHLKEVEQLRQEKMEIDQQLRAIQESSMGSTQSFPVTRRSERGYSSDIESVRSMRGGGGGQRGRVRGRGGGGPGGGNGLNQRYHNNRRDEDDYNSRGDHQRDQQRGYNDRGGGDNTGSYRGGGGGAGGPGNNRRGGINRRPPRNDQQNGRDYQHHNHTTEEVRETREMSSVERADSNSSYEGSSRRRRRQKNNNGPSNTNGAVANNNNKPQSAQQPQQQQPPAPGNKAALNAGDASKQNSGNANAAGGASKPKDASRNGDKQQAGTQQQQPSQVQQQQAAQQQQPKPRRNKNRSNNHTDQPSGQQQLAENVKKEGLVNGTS

For data set [1], the target named is FMR1 (MBP fusion) (UniProt Q9NFU0). Nature of the data set: EMSA. To be noted: EMSA: 10 mM HEPES pH 7.4, 50 mM KCl, 1 mM DTT (printed DDT), 1 mM EDTA, 0.05% Triton X-100, 5% glycerol, 10 ng/ul salmon DNA, 25 C, then 0.2% glutaraldehyde, recombinant protein, letters put together from the description. Background: In EMSA bound probe runs differently from free probe, usually more slowly.

Data set [2] addresses T1, hYthdf2 (human) (UniProt Q9Y5A9).
T1 sequence (looked up): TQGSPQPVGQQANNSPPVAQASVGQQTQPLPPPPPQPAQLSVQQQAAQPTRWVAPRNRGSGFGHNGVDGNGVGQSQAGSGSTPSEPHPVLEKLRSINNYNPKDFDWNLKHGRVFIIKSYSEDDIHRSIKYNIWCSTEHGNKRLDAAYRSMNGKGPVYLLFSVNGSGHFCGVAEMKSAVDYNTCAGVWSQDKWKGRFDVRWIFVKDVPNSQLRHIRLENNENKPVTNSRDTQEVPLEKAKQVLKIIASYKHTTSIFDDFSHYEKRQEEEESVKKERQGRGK
Kind of data set: EMSA. To be noted: all A = m6A (m6ATP); EMSA: 10 mM HEPES pH 7.4, 50 mM KCl, 1 mM DTT (printed DDT), 1 mM EDTA, 0.05% Triton X-100, 5% glycerol, 10 ng/ul salmon DNA, 25 C, then 0.2% glutaraldehyde; recombinant protein; residues 300-579; label: biotin-16-UTP; letters put together from the description.

The target in data set [3] is FMR1 (endogenous) (Drosophila (w1118 embryos)) (UniProt Q9NFU0). Kind of data set: pull-down, immunoblot. To be noted: pull-down: 10 mM Tris-HCl pH 7.5, 150 mM KCl, 1.5 mM MgCl2, 0.1% NP-40, 0.5 mM DTT, 4 C, protein in an extract, label: biotin-16-UTP, letters put together from the description. On the technique in general: In western blotting, separated proteins are transferred to a membrane and probed.

Data set [4] addresses T2, Ythdc (endogenous) (Drosophila (w1118 embryos)) (UniProt Q9VZQ1).
T2 sequence (looked up, limits assumed): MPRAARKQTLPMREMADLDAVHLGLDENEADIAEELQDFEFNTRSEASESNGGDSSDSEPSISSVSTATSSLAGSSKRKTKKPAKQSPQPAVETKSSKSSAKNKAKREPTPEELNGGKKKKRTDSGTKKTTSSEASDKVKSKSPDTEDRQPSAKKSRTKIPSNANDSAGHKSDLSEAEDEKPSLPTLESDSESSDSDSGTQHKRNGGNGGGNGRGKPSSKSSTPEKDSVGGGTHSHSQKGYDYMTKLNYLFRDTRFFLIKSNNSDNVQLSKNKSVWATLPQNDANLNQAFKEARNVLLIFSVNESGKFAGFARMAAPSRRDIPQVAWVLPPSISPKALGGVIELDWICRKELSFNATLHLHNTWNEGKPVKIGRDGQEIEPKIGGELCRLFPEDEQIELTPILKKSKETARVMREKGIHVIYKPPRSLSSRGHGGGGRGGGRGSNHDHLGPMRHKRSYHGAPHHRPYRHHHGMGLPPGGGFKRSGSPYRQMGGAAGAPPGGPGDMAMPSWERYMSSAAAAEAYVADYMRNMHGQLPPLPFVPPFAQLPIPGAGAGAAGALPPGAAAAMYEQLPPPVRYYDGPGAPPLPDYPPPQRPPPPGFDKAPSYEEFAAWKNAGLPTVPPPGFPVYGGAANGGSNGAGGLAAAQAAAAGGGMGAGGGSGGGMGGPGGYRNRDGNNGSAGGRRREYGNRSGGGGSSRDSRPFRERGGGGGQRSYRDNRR
Kind of data set: pull-down, immunoblot. To be noted: pull-down: 10 mM Tris-HCl pH 7.5, 150 mM KCl, 1.5 mM MgCl2, 0.1% NP-40, 0.5 mM DTT, 4 C, protein in an extract, label: biotin-16-UTP, letters put together from the description.

The target in data set [5] is T3, Ythdf (endogenous) (Drosophila (w1118 embryos)) (UniProt Q9VBZ5).
T3 sequence (looked up, limits assumed): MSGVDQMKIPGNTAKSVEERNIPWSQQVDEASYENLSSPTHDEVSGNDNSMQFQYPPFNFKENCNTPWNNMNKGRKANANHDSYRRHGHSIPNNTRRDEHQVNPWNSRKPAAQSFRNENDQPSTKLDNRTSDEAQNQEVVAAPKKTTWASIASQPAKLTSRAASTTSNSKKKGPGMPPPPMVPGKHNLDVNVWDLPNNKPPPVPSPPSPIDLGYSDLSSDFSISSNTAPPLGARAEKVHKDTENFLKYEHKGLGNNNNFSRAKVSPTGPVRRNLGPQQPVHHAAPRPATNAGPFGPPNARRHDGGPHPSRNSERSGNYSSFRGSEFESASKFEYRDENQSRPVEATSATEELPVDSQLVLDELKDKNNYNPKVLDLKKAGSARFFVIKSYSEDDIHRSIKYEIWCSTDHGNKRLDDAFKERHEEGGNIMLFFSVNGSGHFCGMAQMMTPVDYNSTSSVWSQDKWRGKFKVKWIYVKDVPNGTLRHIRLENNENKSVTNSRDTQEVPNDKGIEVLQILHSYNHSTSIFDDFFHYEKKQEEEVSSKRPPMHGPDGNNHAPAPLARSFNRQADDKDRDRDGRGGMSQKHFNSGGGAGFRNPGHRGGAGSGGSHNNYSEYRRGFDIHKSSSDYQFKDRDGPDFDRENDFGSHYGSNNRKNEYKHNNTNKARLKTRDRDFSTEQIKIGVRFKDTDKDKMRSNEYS
Kind of data set: pull-down, immunoblot. To be noted: pull-down: 10 mM Tris-HCl pH 7.5, 150 mM KCl, 1.5 mM MgCl2, 0.1% NP-40, 0.5 mM DTT, 4 C, protein in an extract, label: biotin-16-UTP, letters put together from the description.

[6] abbreviates: all A = m6A (m6ATP), label: biotin-16-UTP.

For the sequence “GGGAAACUAAACUAAACUGAAACUAAACUAAACUGAAACUAAACUAAACUGUAC [AAACU (9x), m6A]”, the binding result in data set [1] (setting [6]) is “binds more weakly”. In the case of “GGGAAACUAAACUAAACUGAAACUAAACUAAACUGAAACUAAACUAAACUGUAC [AAACU (9x), unmodified]”, the binding result in data set [1] (label: biotin-16-UTP) is given as “binds more weakly”. Turning to “GGGAGACUAGACUAGACUGAGACUAGACUAGACUGAGACUAGACUAGACUGUAC [AGACU (9x), unmodified]”, in data set [1] (label: biotin-16-UTP), the binding result was “binds more weakly”. As to “GGGAGCCUAGCCUAGCCUGAGCCUAGCCUAGCCUGAGCCUAGCCUAGCCUGUAC [AGCCU (9x), m6A]”, in data set [1] (setting [6]), the binding result is reported as “binds more weakly”.

As for “GGGGAACUGAACUGAACUGGAACUGAACUGAACUGGAACUGAACUGAACUGUAC [GAACU (9x), m6A]”, in data set [1] (setting [6]), the binding result was “binds more weakly”. In the case of “GGGGAACUGAACUGAACUGGAACUGAACUGAACUGGAACUGAACUGAACUGUAC [GAACU (9x), unmodified]”, the binding result in data set [1] (label: biotin-16-UTP) is “binds more weakly”. “GGGGACUAGACUGAACUGGGACUAGACUGAACUGGGACUAGACUGAACUGUAC [mixed GGACU/AGACU/GAACU probe, m6A]”: the binding result in data set [2] is “binds”; in data set [3] (all A = m6A (m6ATP)) it was “binds”; in data set [4] (all A = m6A (m6ATP)), “binds”; in data set [5] (all A = m6A (m6ATP)), “no binding”. Take “GGGGACUAGACUGAACUGGGACUAGACUGAACUGGGACUAGACUGAACUGUAC [mixed GGACU/AGACU/GAACU probe, unmodified]”: the binding result in data set [1] (label: biotin-16-UTP) was “binds more weakly”; in data set [3], “binds more weakly”; in data set [4], “no binding”; in data set [5], “no binding”. Take “GGGGCCUAGCCUGACCUGGGCCUAGCCUGACCUGGGCCUAGCCUGACCUGU [GACCU mutant RNA, unmodified]”: in data set [1], the binding result is given as “no binding”. For the sequence “GGGGGACUGGACUGGACUGGGACUGGACUGGACUGGGACUGGACUGGACUGUAC [GGACU (9x), m6A]”, the binding result in data set [1] (setting [6]) was “binds more weakly”. In the case of “GGGGGACUGGACUGGACUGGGACUGGACUGGACUGGGACUGGACUGGACUGUAC [GGACU (9x), unmodified]”, the binding result in data set [1] (label: biotin-16-UTP) is listed as “binds more weakly”. Regarding “GGUAGACAAGACAAGACAAGACAAGACAAGACAAGACAAGACAAGACAGUACU [AGACA (9x), m6A]”, the binding result in data set [1] (setting [6]) is “binds more weakly”.

Consider “GGUAGACCAGACCAGACCAGACCAGACCAGACCAGACCAGACCAGACCGUACU [AGACC (9x), m6A]”, for which the binding result in data set [1] (setting [6]) was “binds more weakly”.
